Drawing on PubChem BioAssay AID2685 (National Center for Advancing Translational Sciences (NCATS), 2010), this text covers cell number change and AC50 for 15 compounds.

Some of the results follow. Further columns of the screen follow, without active or inactive calls. The list favours compounds with an active or inconclusive main result. Potencies come from curve fits of mixed quality, noted in brackets.

The test in a line: qHTS Assay for Lipid Storage Modulators in Drosophila S3 Cells.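 On cell number change: cells counted by Cell Tracker Red CMTPX staining in the red channel.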 Particulars: BODIPY lipid droplet fluorescence, 18-24 h; for cell number change: measured here: cell count max response, cells fed with added oleic acid. An outline of the steps:
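Drosophila S3 cells loaded with oleic acid (400 uM, as added) and compounds at several concentrations; lipid droplets imaged by 488-nm laser-scanning cytometry, 500–530 nm intensity and object ratio to cell channel. Percent activity normalized to 20 uM Triacsin C.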

Setting [1] is: measured here: cell number channel AC50, cells fed with added oleic acid.
Where [2] appears, read: measured here: lipid fluorescence (Fed channel) AC50, cells fed with added oleic acid.

The AC50 is the concentration giving half of the maximal activity seen. A low value points to activity at low concentration. For the compound `Cc1ccc(S(=O)(=O)CCC(=O)N2CCN(c3ccccc3F)CC2)cc1`, the cell number change came out at 20.2%. Besides, the concentration at half-maximal activity (AC50) under setting [1] was 0.00461 µM [rising, full curve, poor fit].

In the case of `CCCCNC(=O)c1onc(CSc2ccc(F)c(F)c2)c1C(=O)O`, the cell number change is -2.45%.

Turning to `Cc1c(OC(C)C(=O)NCCCN2CCOCC2)ccc2c1oc(=O)c1ccccc12` (stereo not drawn), the cell number change amounted to 14.1%. Also, under setting [2], the AC50 is 29.1 µM [rising, partial curve, poor fit].

As to `CC1CCc2nc(NC(=O)CN3CCOCC3)sc2C1` (stereo not drawn), the cell number change is 47.3%. The AC50 under setting [1] was 16.4 µM [rising, single point]. Also, the AC50 under setting [2] was 20.6 µM [rising, single point].

`COC(=O)c1cc2c(C)c(C)c3ccccn3c-2c1C(=O)OC`: the cell number change is -35.1%. In addition, the concentration at half-maximal activity (AC50) under setting [1] is 1.16 µM [rising, partial curve]. The AC50 under setting [2] was 2.06 µM [rising, partial curve].

With `Cc1ccc(-c2nc(CS(=O)CC(=O)NCCN3CCOCC3)c(C)o2)cc1` (stereo not drawn), the cell number change was found to be 27.7%. Besides, the AC50 under setting [2] was 14.6 µM [rising, partial curve, poor fit].

Take `CCOC(=O)N1CCC(N2Cc3cccc(C(=O)NCc4ccccn4)c3C2=O)CC1`: the cell number change turned out to be 19.6%. Also, the AC50 under setting [2] was 3.66 µM [rising, single point].

Turning to `CCN(CC(=O)Nc1c(F)cccc1F)C(=O)CC1CCCCC1`, the cell number change is -14.5%.

As to `Cn1c(=O)c2c(nc(N3CCCCCC3)n2CC(O)COc2ccccc2)n(C)c1=O` (stereo not drawn), the cell number change is 3.45%.

Turning to `COC(=O)c1nnn(CC(=O)NC(=O)Nc2cccc(C)c2C)c1C(=O)OC`, the cell number change was found to be 39.9%. In addition, the concentration at half-maximal activity (AC50) under setting [1] was 8.2 µM [rising, partial curve]. Moreover, under setting [2], the AC50 is 8.2 µM [rising, partial curve].

With `O=Cc1ccccc1-c1cn(CCCOCc2ccccc2)nn1`, the cell number change came out at 14.6%. Also, the AC50 under setting [2] was 29.1 µM [falling, single point].

In the case of `Cc1cc(C)c(NC(=O)CSc2nnc(CNC(=O)c3c(F)cccc3Cl)o2)c(C)c1`, the cell number change was -14.4%. In addition, the AC50 under setting [1] is 0.92 µM [falling, full curve, poor fit]. For the same compound, under setting [2], the half-maximal activity concentration (AC50) is 0.146 µM [falling, full curve, poor fit].

On to `COc1ccc(NC(=O)CSc2nc3ccccc3c(=O)n2CCNC(C)=O)c(OC)c1`, for which the cell number change is -17.7%. Also, the half-maximal activity concentration (AC50) under setting [2] is 0.103 µM [falling, full curve, poor fit].

For `CN(C)S(=O)(=O)c1ccc(NC(=O)COC(=O)Cn2[nH]c(=O)c3ccccc3c2=O)cc1`, the cell number change turned out to be 18.9%. Also, the AC50 under setting [1] is 0.146 µM [falling, full curve, poor fit]. For the same compound, under setting [2], the half-maximal activity concentration (AC50) was 0.146 µM [falling, full curve, poor fit].

As to `Cc1ccccc1CNC(=O)C(=O)Nc1nccs1`, the cell number change amounted to 0.135%. Under setting [1], the AC50 is 7.31 µM [rising, single point]. For the same compound, the AC50 under setting [2] is 5.8 µM [rising, single point].
